Values from PubChem BioAssay AID743454 (Peter MacCallum Cancer Centre, 2014)
Aim: 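Genes whose loss kills vorinostat-resistant colon cancer cells under vorinostat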 (primary screen). Cell system: human HCT116-VR colon cancer cells, selected for vorinostat resistance. Reagent: siRNA pool against human genes, 40 nM siRNA pool. Time to read-out: vorinostat for 24 h, read-out about 72 h after transfection. Conditions: vorinostat at 2.5 µM final. Detection: 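Cell viability by CellTiter-Fluor and caspase 3/7 activity by luminescence, each scaled to mock wells per plate, duplicates averaged, then robust z-scored over all plates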. Direction: viability robust z-score: higher = more viable cells than screen typical; caspase robust z-score: higher = more caspase 3/7 activity than screen typical. Rule for the call: 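Hits are knock-downs in viability class RV1/RV2 or caspase class CA1/CA2, excluding ones that killed cells in the no-drug cell-count arm; hits then retested with single siRNAs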.
Here is one part, drawn at random, of about 18,000 reagents tested. 450 of them (2.5%) were called active. 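Single biological run; no consistent viability z cut-off exists, so the class columns, not z-scores, define the calls.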 Entries without a mark were called inactive.

The first 4 entries as a preview:
no.	target	viability hit class	caspase hit class	viability robust z-score	caspase robust z-score
1	CCDC172	no change	no change	0.55	-1.15
2	SH3GLB2	no change (active)	CA2 (caspase activation)	-0.55	6.12
3	BEND6	no change (active)	CA1 (caspase activation)	-0.48	5.53
4	EFCC1	no change	no change	-1.45	-1.57

The list itself, from the first entry:
no.	target	viability hit class	caspase hit class	viability robust z-score	caspase robust z-score
1	CCDC172	no change	no change	0.55	-1.15
2	SH3GLB2	no change (active)	CA2 (caspase activation)	-0.55	6.12
3	BEND6	no change (active)	CA1 (caspase activation)	-0.48	5.53
4	EFCC1	no change	no change	-1.45	-1.57
5	RETNLB	no change	no change	0.11	0.88
6	ADAMTS13	no change	no change	0.22	-0.36
7	STK3	no change	no change	-0.54	0.36
8	FBXO36	no change	no change	0.29	0.45
9	FBXL5	no change	no change	0.46	-0.01
10	TPBG	no change	no change	-0.5	-0.86
11	YWHAG	no change	no change	-0.52	1.79
12	AGTPBP1	no change	no change	1.14	0.35
13	PDIA4	no change	no change	0.7	-0.69
14	GPATCH3	no change	no change	-1.27	1.08
15	TFEB	no change	no change	0.42	1.26
16	ZNF669	no change	no change	-0.45	1.21
17	RBM41	no change	no change	0.22	-0.29
18	AFG1L	no change	no change	-0.62	-0.45
19	ENOSF1	no change	no change	0.57	-0.12
20	SVBP	no change	no change	-0.2	-1.09
21	FCHSD2	no change	no change	0.18	0.05
22	ZNF222	no change	no change	0.13	-0.56
23	OR2AG2	no change	no change	-0.54	0.2
24	NOMO2	no change	no change	0.06	-0.52
25	MIEN1	no change	no change	-0.49	0.94
26	HOXD12	no change	no change	-0.78	0.24
27	SNRPA1	RV2 (reduced viability) (active)	no change	-3.27	-0.96
28	UTP4	no change	no change	-1.64	0.3
29	RANBP1	no change	no change	-0.34	-0.92
30	OR6N1	no change	no change	-0.56	-0.54
31	ABCC10	no change	no change	0.44	1.99
32	MYH4	no change	no change	-2.88	5.11
33	AP2A2	no change	no change	-1.77	1.02
34	DSN1	no change	no change	0.77	0.47
35	TFCP2L1	no change	no change	-0.68	1.13
36	SLC6A3	no change	no change	0.7	-0.25
37	CBR3	no change	no change	0.52	-0.86
38	INSIG1	no change	no change	0.82	-1.1
39	PRDM5	no change	no change	1.1	-0.06
